Structures can show the parent of a compound that is named as a salt. This is one part of the list. Repeats are few or missing, and single values can be far off.

For the experiment, the system named is p95-ErbB2-MCF7. Nature of the experiment: perinuclear lysosome accumulation (PNLA, size of LAMP2 puncta), robust Z-score vs plate median; higher = more perinuclear lysosome accumulation (reversal of invasive lysosome distribution). The settings on record: 5 µM; 24 h.
On to `CCCNC(C)C(=O)Nc1c(C)csc1C(=O)OC` (stereo not drawn) [Articaine hydrochloride], for which the perinuclear lysosome accumulation stood at 0.282.

With `NCCc1cc[nH]n1` [Betazole hydrochloride], the perinuclear lysosome accumulation was 0.292.

Consider `Cc1c(NC(C)C)c(=O)n(-c2ccccc2)n1C` [Isopyrin hydrochloride], for which the perinuclear lysosome accumulation is -0.612.

In the case of `C[C@]12CCC(=O)C=C1C=C[C@@H]1[C@@H]2CC[C@@]2(C)[C@H]1CC[C@@]21CCC(=O)O1` [Canrenone], the perinuclear lysosome accumulation is -2.56.

`Oc1cc(O)c2c(c1)O[C@H](c1ccc(O)c(O)c1)[C@@H](O)C2` (racemic) [Catechin-(+,-) hydrate]: the perinuclear lysosome accumulation was -0.501.

Turning to `NC(=O)OCC(O)COc1ccc(Cl)cc1` (stereo not drawn) [Chlorphensin carbamate], the perinuclear lysosome accumulation was -0.271.

Regarding `CC1(C)S[C@@H]2[C@H](NC(=O)[C@H](N)c3ccccc3)C(=O)N2[C@H]1C(=O)OC1OC(=O)c2ccccc21` (stereo partly drawn) [Talampicillin hydrochloride], the perinuclear lysosome accumulation stood at 0.803.

Turning to `CN1C(C(=O)Nc2ccccn2)=C(O)c2ccccc2S1(=O)=O` [Piroxicam], the perinuclear lysosome accumulation was -0.36.

As to `COCCOC(=O)C1=C(C)NC(C)=C(C(=O)OC(C)C)C1c1cccc([N+](=O)[O-])c1` (stereo not drawn) [Nimodipine], the perinuclear lysosome accumulation was -0.612.

Regarding `COC(=O)CCc1ccc(OCC(O)CNC(C)C)cc1` (stereo not drawn) [Esmolol hydrochloride], the perinuclear lysosome accumulation was -0.264.

`CNCCC=C1c2ccccc2C=Cc2ccccc21` [Norcyclobenzaprine]: the perinuclear lysosome accumulation turned out to be 0.59.

In the case of `NC(=O)c1ccc[n+]([C@@H]2O[C@H](COP(=O)([O-])OP(=O)(O)OC[C@H]3O[C@@H](n4cnc5c(N)ncnc54)[C@H](O)[C@@H]3O)[C@@H](O)[C@H]2O)c1` [Nadide], the perinuclear lysosome accumulation was 0.883.

In the case of `Cc1ccc(C)c(OCCCC(C)(C)C(=O)O)c1` [Gemfibrozil], the perinuclear lysosome accumulation is -0.166.

For the compound `CN1CCc2cccc3c2[C@H]1Cc1ccc(O)c(O)c1-3` [R(-) Apomorphine hydrochloride hemihydrate], the perinuclear lysosome accumulation is 0.645.

As to `CCC(NC(C)C)C(O)c1ccc(O)c(O)c1` (stereo not drawn) [Isoetharine mesylate salt], the perinuclear lysosome accumulation was 0.463.

Consider `CCC(Cc1c(I)cc(I)c(N)c1I)C(=O)O` (stereo not drawn) [Iopanoic acid], for which the perinuclear lysosome accumulation is -1.28.

In the case of `C[C@@H]1[C@H](O)[C@@H](C)/C=C/C=C/C=C/C=C/C=C/C=C/C=C/[C@H](O[C@@H]2O[C@H](C)[C@@H](O)[C@H](N)[C@@H]2O)C[C@@H]2O[C@](O)(C[C@@H](O)C[C@@H](O)[C@H](O)CC[C@@H](O)C[C@@H](O)CC(=O)O[C@H]1C)C[C@H](O)[C@H]2C(=O)O` [Amphotericin B], the perinuclear lysosome accumulation was -0.116.

In the case of `CO[C@@]1(NC(=O)CSCC#N)C(=O)N2C(C(=O)O)=C(CSc3nnnn3C)CS[C@@H]21` [Cefmetazole sodium salt], the perinuclear lysosome accumulation was found to be 0.991.

Take `CC(C)NC[C@H](O)COc1ccc(CC(N)=O)cc1` [(S)-(-)-Atenolol]: the perinuclear lysosome accumulation was 0.0219.

With `CCOC(=O)C(C)(C)Oc1ccc(Cl)cc1` [Clofibrate], the perinuclear lysosome accumulation is -3.08.

Take `CC(=O)N(O)CCCCCNC(=O)CCC(=O)N(O)CCCCCNC(=O)CCC(=O)N(O)CCCCCN` [Deferoxamine mesylate]: the perinuclear lysosome accumulation is -0.792.

Turning to `CCN[C@H]1C[C@H](C)S(=O)(=O)c2sc(S(N)(=O)=O)cc21` [Dorzolamide hydrochloride], the perinuclear lysosome accumulation was determined as 0.891.

With `CC(C)/N=c1\cc2n(-c3ccc(Cl)cc3)c3ccccc3nc-2cc1Nc1ccc(Cl)cc1` [Clofazimine], the perinuclear lysosome accumulation worked out at 3.58.

For `O=C1Cc2cc(CCN3CCN(c4nsc5ccccc45)CC3)c(Cl)cc2N1` [Ziprasidone  Hydrochloride], the perinuclear lysosome accumulation was -2.03.

On to `O=c1cc(-c2ccc(O)c(O)c2)oc2cc(O)cc(O)c12` [Luteolin], for which the perinuclear lysosome accumulation was -0.467.

As to `CC(C)(C(=O)c1cccnc1)c1cccnc1` [Metyrapone], the perinuclear lysosome accumulation was 1.66.

Turning to `Cc1cc(=O)n(-c2ccccc2)n1C` [Antipyrine], the perinuclear lysosome accumulation worked out at 1.26.

With `Clc1ccc(COC(Cn2ccnc2)c2ccc(Cl)cc2Cl)c(Cl)c1` (stereo not drawn) [Miconazole], the perinuclear lysosome accumulation amounted to 0.258.

In the case of `NC12CC3CC(CC(C3)C1)C2` [Adamantamine fumarate], the perinuclear lysosome accumulation was 0.542.

Take `Cc1ccc(-c2ncc(Cl)cc2-c2ccc(S(C)(=O)=O)cc2)cn1` [Etoricoxib]: the perinuclear lysosome accumulation was 0.533.

On to `CC1CCc2c(N3CCC(O)CC3)c(F)cc3c(=O)c(C(=O)O)cn1c23` (stereo not drawn) [Nadifloxacin], for which the perinuclear lysosome accumulation is -0.332.

With `C[C@@H]1NC(=O)NC1=O` [Methylhydantoin-5-(L)], the perinuclear lysosome accumulation came out at 0.427.

As to `COc1ccc(-c2ccc(=N)n(CCCC(=O)O)n2)cc1` [Gabazine], the perinuclear lysosome accumulation was determined as 0.207.

Take `CO[C@H]1C[C@H](O[C@H]2[C@H](C)[C@@H](O[C@@H]3O[C@H](C)C[C@H](N(C)C)[C@H]3OC(C)=O)[C@@H](C)C[C@@]3(CO3)C(=O)[C@H](C)[C@@H](OC(C)=O)[C@@H](C)[C@@H](C)OC(=O)[C@@H]2C)O[C@@H](C)[C@@H]1OC(C)=O` [Troleandomycin]: the perinuclear lysosome accumulation was -0.494.

Take `Cc1cc(C(=O)NNCc2ccccc2)no1` [Isocarboxazid]: the perinuclear lysosome accumulation is -0.166.

As for `CC(C)(S)[C@@H](N)C(=O)O` [Penicillamine], the perinuclear lysosome accumulation stood at 1.82.

Take `CN(C)CC/C=C1\c2ccccc2CSc2ccccc21` [Dosulepin hydrochloride]: the perinuclear lysosome accumulation came to 0.0231.

With `CC(C)(Oc1ccc(Cl)cc1)C(=O)O` [Clofibric acid], the perinuclear lysosome accumulation is -0.592.

As for `CS(=O)(=O)CCNCc1ccc(-c2ccc3ncnc(Nc4ccc(OCc5cccc(F)c5)c(Cl)c4)c3c2)o1` [Lapatinib ditosylate], the perinuclear lysosome accumulation turned out to be 1.37.

With `Cn1ccnc1S` [Methimazole], the perinuclear lysosome accumulation was 0.312.

With `Nc1c(Br)cc(Br)cc1CN[C@H]1CC[C@H](O)CC1` [Ambroxol hydrochloride], the perinuclear lysosome accumulation came out at 0.342.

`CC(C)(Sc1cc(C(C)(C)C)c(O)c(C(C)(C)C)c1)Sc1cc(C(C)(C)C)c(O)c(C(C)(C)C)c1` [Probucol]: the perinuclear lysosome accumulation is -0.108.

Turning to `CN1CCC(=C2c3ccccc3CC(=O)c3sccc32)CC1` [Ketotifen fumarate], the perinuclear lysosome accumulation was -0.14.

Take `COc1ccccc1N1CCN(CC(O)COc2cccc3ccccc23)CC1` (stereo not drawn) [Naftopidil dihydrochloride]: the perinuclear lysosome accumulation was found to be 0.21.

As for `CN1CCCC(CC2c3ccccc3Sc3ccccc32)C1` (stereo not drawn) [Metixene hydrochloride], the perinuclear lysosome accumulation was found to be 4.49.

For `CCN1C(=O)NC(c2ccccc2)C1=O` (stereo not drawn) [Ethotoin], the perinuclear lysosome accumulation is -0.292.

Consider `CCCN(CCC)C(=O)C(CCC(=O)O)NC(=O)c1ccccc1` (stereo not drawn) [Proglumide], for which the perinuclear lysosome accumulation is 1.13.

As for `COc1ccc2c(c1)N(C[C@H](C)CN(C)C)c1ccccc1S2` [Methotrimeprazine maleat salt], the perinuclear lysosome accumulation came out at 1.79.

Consider `N#CC(c1ccc(Cl)cc1)c1c(Cl)cc(-n2ncc(=O)[nH]c2=O)cc1Cl` (stereo not drawn) [Diclazuril], for which the perinuclear lysosome accumulation stood at 0.975.

For the compound `COc1cc(OC)c(C(=O)CCCN2CCCC2)c(OC)c1` [Buflomedil hydrochloride], the perinuclear lysosome accumulation was determined as 0.345.

Regarding `CCCCC(CC)CN1CN(CC(CC)CCCC)CC(C)(N)C1` (stereo not drawn) [Hexetidine], the perinuclear lysosome accumulation was -1.83.

On to `O=C(CCCN1CCC(O)(c2ccc(Br)cc2)CC1)c1ccc(F)cc1` [Bromperidol], for which the perinuclear lysosome accumulation was 0.222.

For `CO[C@@]1(NC(=O)Cc2cccs2)C(=O)N2C(C(=O)O)=C(COC(N)=O)CS[C@@H]21` [Cefoxitin sodium salt], the perinuclear lysosome accumulation is -1.09.

On to `CC(=O)c1ccc2c(c1)N(CCCN1CCC(CCO)CC1)c1ccccc1S2` [Piperacetazine], for which the perinuclear lysosome accumulation is 1.08.

For `CCN(CC)CCOC(=O)C(c1ccccc1)C1CCCCC1` (stereo not drawn) [Drofenine hydrochloride], the perinuclear lysosome accumulation was -0.33.

On to `CS(=O)(=O)c1ccc(C2=C(c3ccccc3)C(=O)OC2)cc1` [Rofecoxib], for which the perinuclear lysosome accumulation is 0.822.

On to `Cn1c(=O)c2[nH]cnc2n(C)c1=O` [Aminophylline], for which the perinuclear lysosome accumulation turned out to be 0.00782.

`Cc1[nH]c(=O)c(C#N)cc1-c1ccncc1` [Milrinone]: the perinuclear lysosome accumulation was -0.549.

On to `CN(C)CCC=C1c2ccccc2CCc2ccccc21` [Amitryptiline hydrochloride], for which the perinuclear lysosome accumulation was -0.137.

Consider `C[C@]12CC[C@H]3C(=CCc4cc(O)ccc43)[C@@H]1CCC2=O` [Equilin], for which the perinuclear lysosome accumulation was determined as 0.0212.

Consider `O=P(O)(O)C(Sc1ccc(Cl)cc1)P(=O)(O)O` [Tiludronate disodium], for which the perinuclear lysosome accumulation is -0.747.

As to `C=C[C@H]1CN2CC[C@H]1C[C@@H]2[C@@H](O)c1ccnc2ccc(OC)cc12` [Quinidine hydrochloride monohydrate], the perinuclear lysosome accumulation is 0.106.

As for `Cc1cccc(C)c1NC(=O)C1CCCCN1C` (stereo not drawn) [Mepivacaine hydrochloride], the perinuclear lysosome accumulation was 1.15.

For the compound `Cc1ncc([N+](=O)[O-])n1CC(O)CCl` (stereo not drawn) [Ornidazole], the perinuclear lysosome accumulation amounted to 0.207.

In the case of `CN1C(C(=O)Nc2ccccn2)=C(O)c2sccc2S1(=O)=O` [Tenoxicam], the perinuclear lysosome accumulation is 0.87.

As to `COc1cc(C(=O)NS(=O)(=O)c2ccccc2C)ccc1Cc1cn(C)c2ccc(NC(=O)OC3CCCC3)cc12` [Zafirlukast], the perinuclear lysosome accumulation was found to be 1.9.

Regarding `Cc1cc(C2CCCCC2)n(O)c(=O)c1` [Ciclopirox ethanolamine], the perinuclear lysosome accumulation is -0.551.

Regarding `NS(=O)(=O)c1cc(C(=O)O)c(NCc2ccco2)cc1Cl` [Furosemide], the perinuclear lysosome accumulation was -1.58.

With `CCOC(=O)[C@H](CCc1ccccc1)N[C@@H](C)C(=O)N1[C@H](C(=O)O)C[C@@H]2CCC[C@@H]21` [Ramipril], the perinuclear lysosome accumulation was determined as 0.0869.

On to `CCOc1ccc2c(c1)C(C)=CC(C)(C)N2` [Ethoxyquin], for which the perinuclear lysosome accumulation is -0.0952.

Regarding `NC(=O)c1ncn([C@@H]2O[C@H](CO)[C@@H](O)[C@H]2O)n1` [Ribavirin], the perinuclear lysosome accumulation is -1.29.

As for `CC(C)COCC(CN(Cc1ccccc1)c1ccccc1)N1CCCC1` (stereo not drawn) [Bepridil hydrochloride], the perinuclear lysosome accumulation was 2.67.

`CN[C@H](CC(C)C)C(=O)N[C@H]1C(=O)N[C@@H](CC(N)=O)C(=O)N[C@H]2C(=O)N[C@H]3C(=O)N[C@H](C(=O)N[C@H](C(=O)O)c4cc(O)cc(O)c4-c4cc3ccc4O)[C@H](O)c3ccc(c(Cl)c3)Oc3cc2cc(c3O[C@@H]2O[C@H](CO)[C@@H](O)[C@H](O)[C@H]2O[C@H]2C[C@](C)(N)[C@H](O)[C@H](C)O2)Oc2ccc(cc2Cl)[C@H]1O` [Vancomycin hydrochloride]: the perinuclear lysosome accumulation is -1.11.

Source of the values: the supplement of paper PMC8090911.
